# Measured values published in PubChem BioAssay AID445 (National Center for Advancing Translational Sciences (NCATS), 2006).
# This is one part of the list. Further columns of the screen follow, without active or inactive calls. The list favours compounds with an active or inconclusive main result. The note in brackets gives the kind of curve behind each potency; many fits are weak.
# Test: IkB Signaling
# Details: ABC-DLBCL IkBa-CBG/CBR dual luciferase ratio (green luciferase fused to IkBa over red control in OCI-Ly3 lymphoma cells), 4 h
# Method in brief: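 In this assay, an IκBα–CBG68 fusion accumulates when IKK-driven degradation is blocked; native CBR normalizes for cell number. OCI-Ly3 cells were treated 4 h with compound and doxycycline, then green and red light read after Chroma-Glo addition.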
# [1] = measured here: control luc red channel unless noted
smiles,measurement,setting,value
Cc1cccc(N2CCN(S(=O)(=O)c3cc(C(=O)Nc4ccc(Oc5ccccc5)cc4)ccc3F)CC2C)c1 (stereo not drawn),AC50,[1],"2 µM [falling, full curve]"
CCCCN(C)CCNC(=O)c1nn(-c2ccc(OC)c(Cl)c2)c(=O)c2c1c1ccccc1n2C,AC50,[1],"25.1 µM [falling, single point]"
O=C(NCc1cccs1)c1cc(-c2cccc(Cl)c2)on1,AC50,[1],"7.94 µM [falling, partial curve]"
OC(CN1C2=NCCN2c2ccccc21)c1ccc2c(c1)OCO2 (stereo not drawn),AC50,[1],"39.8 µM [rising, partial curve] [measured here: IkB-luc green channel]"
NCCSSCCN,AC50,[1],"25.1 µM [rising, partial curve, poor fit] [measured here: IkB-luc green channel]"
c1ccc(CCc2ccccc2-c2nc(-c3ccccn3)no2)cc1,AC50,[1],"5.01 µM [falling, partial curve]"
Cc1cccn2c(=O)c(C(=O)N3CCN(c4ccccc4F)CC3)cnc12,AC50,[1],"0.158 µM [rising, full curve]"
CCN(CC)c1ccc2cc(-c3nnc(Nc4ccc(C)cc4)s3)c(=O)oc2c1,AC50,[1],"0.0251 µM [rising, full curve, poor fit]"
COc1ccc2c(C)c(CCC(=O)NCCc3ccccc3)c(=O)oc2c1,AC50,[1],"20 µM [falling, single point]"
COC(=O)C1=C(CS(=O)(=O)c2ccc(C)cc2C)NC(=O)NC1c1ccc(C)cc1 (stereo not drawn),AC50,[1],"25.1 µM [falling, single point]"
Cc1cc2cc(CN(Cc3cccs3)Cc3nnnn3CC3CCCO3)c(=O)[nH]c2cc1C (stereo not drawn),AC50,[1],"12.6 µM [falling, partial curve]"
COc1ccc(-c2cc(C(=O)N3CCN(C(c4ccccc4)c4ccccc4)CC3)no2)cc1OC,AC50,[1],"3.98 µM [falling, partial curve]"
CCOc1ccccc1NC(=O)Cn1nnc(C(=O)NCc2cccs2)c1N,AC50,measured here: IkB-luc green channel,"2.51 µM [rising, full curve]"
same,AC50,measured here: control luc red channel,"1 µM [rising, full curve]"
CC(=O)N1c2ccccc2C(=O)C1N1CCN(c2ccc(Cl)cc2)CC1 (stereo not drawn),AC50,[1],"25.1 µM [falling, single point]"
Cc1cc(=O)[nH]c(S/C=C/c2ccccc2)n1,AC50,[1],"5.01 µM [falling, full curve]"
CCOC(=O)c1cc(OC(=O)c2ccccc2F)n(-c2ccccc2)n1,AC50,[1],"2 µM [rising, partial curve]"
Cc1ccccc1Nc1nn2c(=O)c3ccc(C(=O)NCC(C)c4ccccc4)cc3nc2s1 (stereo not drawn),AC50,[1],"25.1 µM [falling, partial curve]"
COC(=O)c1cc(NC(=O)CSc2nnc(CN3CCOCC3)n2C)ccc1Cl,AC50,[1],"10 µM [falling, partial curve]"
COc1ccc(S(=O)(=O)N(CC(=O)NCCSc2ccc(C)cc2)c2ccc(C)cc2)cc1,AC50,[1],"12.6 µM [falling, partial curve]"
CCOc1ccccc1NC(=O)CSc1c2c(nc3ccc(Cl)cc13)CCCC2,AC50,[1],"1.58 µM [falling, single point]"
CCc1c(-c2ccccc2)nc2ccccc2c1C(=O)NC(C)c1ccccc1 (stereo not drawn),AC50,[1],"31.6 µM [falling, partial curve]"
CCOC(=O)C1CCCN(S(=O)(=O)c2cc(-c3onc(C)c3C)ccc2OC)C1 (stereo not drawn),AC50,[1],"39.8 µM [falling, partial curve]"
CC(C)(C)C(=O)[C@@H]1[C@@H]2C(=O)N(c3ccc4c(c3)OCCO4)C(=O)[C@@H]2C2c3ccccc3C=CN21 (stereo partly drawn),AC50,[1],"7.94 µM [falling, partial curve]"
CCOc1ccccc1NC(=O)c1nc(S(=O)(=O)Cc2cccc(C)c2)ncc1Cl,AC50,[1],"7.94 µM [falling, full curve]"
CC1CCc2onc(C(=O)Nc3ccc(Cl)cc3)c2C1 (stereo not drawn),AC50,[1],"12.6 µM [falling, single point]"
COc1cccc(-c2nc(-c3ccc(Br)o3)no2)c1,AC50,[1],"0.1 µM [rising, full curve]"
COc1ccc(-c2cc(CCCC(=O)NCCc3cc(OC)ccc3OC)no2)cc1,AC50,[1],"10 µM [falling, partial curve]"
CCOc1ccccc1N1CCN(C(=O)Nc2ccc(F)c(Cl)c2)CC1,AC50,[1],"39.8 µM [falling, single point]"
Cc1nc2c(c(C)c1CCC(=O)NCc1ccc(F)cc1)c(=O)n(C)c(=O)n2C,AC50,[1],"3.98 µM [falling, partial curve, poor fit]"
Fc1ccccc1Nc1c2c(nc3ccccc13)CCC2,AC50,[1],"25.1 µM [falling, single point]"
CCN(Cc1ccncc1)S(=O)(=O)c1ccc(C(C)=O)cc1,AC50,[1],"15.8 µM [falling, partial curve]"
COc1cccc2cc(C(=O)N3CCN(c4cc(C)ccc4C)CC3)c(=O)oc12,AC50,[1],"31.6 µM [falling, single point]"
COc1ccc(-c2ccc(NS(=O)(=O)c3ccc(NC(C)=O)cc3)cc2)nn1,AC50,[1],"3.98 µM [falling, full curve]"
COc1ccc(OC)c(NC(=O)c2c(NCc3cccs3)sc3c2CCCCC3)c1,AC50,[1],"20 µM [falling, partial curve]"
CCN(CC)c1ccc(NC(=O)c2c(C)nn(-c3ccc(F)cc3)c2-n2cccc2)c(C)c1,AC50,[1],"12.6 µM [falling, partial curve]"
COc1cccc(CN(C(=O)COc2ccc(Cl)c(C)c2)C2CCS(=O)(=O)C2)c1 (stereo not drawn),AC50,[1],"10 µM [falling, partial curve]"
Cc1ccc(Sc2ccc(N3CCC(C(=O)Nc4cc(C)cc(C)c4)CC3)nn2)cc1,AC50,[1],"3.16 µM [falling, full curve]"
Cc1ccc(C2CC(=O)n3nc(-c4ccc(Cl)cc4)nc3S2)cc1 (stereo not drawn),AC50,[1],"12.6 µM [falling, partial curve]"
Cc1c(Cl)cccc1-n1ncc(C(=O)NCCN2CCN(C)CC2)c1C1CCN(C(=O)OC(C)(C)C)CC1,AC50,[1],"39.8 µM [falling, single point]"
O=C(Nc1ccc(Cl)cc1)c1cnn2c1NC(c1ccccc1)=CC2c1ccccc1 (stereo not drawn),AC50,[1],"12.6 µM [falling, partial curve]"
CCOC(=O)c1scc(-c2ccccc2)c1S(=O)(=O)N1CCN(c2ccc(Cl)cc2)CC1,AC50,[1],"0.501 µM [falling, full curve, poor fit]"
Cc1ccc(S(=O)(=O)NC2OC(=O)C(Cl)=C2Cl)cc1 (stereo not drawn),AC50,[1],"39.8 µM [rising, single point] [measured here: IkB-luc green channel]"
O=C(CSc1ccc(Cl)cc1)Nc1ccc(N2CCN(C(=O)c3ccco3)CC2)cc1,AC50,[1],"3.98 µM [falling, full curve]"
c1ccc2oc(SCc3cn4ccccc4n3)nc2c1,AC50,[1],"20 µM [falling, partial curve, poor fit]"
COc1cccc(N2CCN(C(=O)c3cnc4c(-c5ccccc5)c(C)nn4c3C)CC2)c1,AC50,[1],"20 µM [falling, single point]"
Cc1ccccc1NC(=O)NCCc1c[nH]c2ccccc12,AC50,[1],"12.6 µM [falling, partial curve]"
COc1ccc(S(=O)(=O)Cc2ccc(C(=O)N3CCN(c4ccc(Cl)cc4)CC3)o2)cc1,AC50,[1],"10 µM [falling, partial curve]"
O=C1CC(c2cccs2)Sc2nc3ccccc3n21 (stereo not drawn),AC50,[1],"15.8 µM [falling, partial curve]"
Cc1ccccc1Nc1ncnc2c1cnn2-c1ccccc1,AC50,[1],"31.6 µM [falling, partial curve]"
COC(=O)c1cc(NS(=O)(=O)c2ccc3c(c2)OCCO3)ccc1Cl,AC50,[1],"12.6 µM [falling, single point]"
CS(=O)c1nc(-c2ccc(Br)cc2)cc(-c2ccccc2)c1C#N (stereo not drawn),AC50,[1],"3.16 µM [falling, full curve]"
O=C(Nc1nc(-c2cccs2)cs1)c1ccc(S(=O)(=O)N2CCCC2)cc1,AC50,[1],"10 µM [falling, partial curve]"
CCOc1ccccc1NC(=O)CSc1nc2ccccc2nc1N1CCOCC1,AC50,[1],"7.94 µM [falling, partial curve]"
COc1ccc(NC(=O)c2cc(Cl)ccc2NC(=O)c2ccco2)c(OC)c1,AC50,[1],"12.6 µM [falling, partial curve]"
COc1ccc(-c2noc(N3CCC(C(=O)Nc4cccc(C)c4C)CC3)n2)cc1,AC50,[1],"0.0501 µM [falling, full curve, poor fit]"
CCOc1cc(CNC(=O)c2cc(-c3ccccc3)n[nH]2)cc(OCC)c1OCC,AC50,[1],"10 µM [falling, single point]"
COc1ccc(CCNC(=O)c2cnn(-c3ccc(F)cc3)c2C2CCN(C(=O)OC(C)(C)C)CC2)cc1OC,AC50,[1],"25.1 µM [falling, partial curve]"
CCOc1cc(C(c2c(C)[nH]n(-c3ccccc3)c2=O)c2c(C)[nH]n(-c3ccccc3)c2=O)ccc1O,AC50,[1],"25.1 µM [rising, partial curve] [measured here: IkB-luc green channel]"
CC(C)OC(=O)CSc1nnc(-c2ccc(Cl)cc2Cl)o1,AC50,[1],"39.8 µM [falling, single point]"
CC(Oc1ccccc1)C(=O)Nc1ccc(C(=O)OCc2cc(=O)n3nc(C(C)C)sc3n2)cc1 (stereo not drawn),AC50,[1],"20 µM [falling, partial curve]"
COC(=O)c1ccccc1NC(=O)CN(C)S(=O)(=O)c1ccc(OC)c(C)c1,AC50,[1],"20 µM [falling, partial curve]"
COc1ccc(C(=O)Nc2ccc(-c3nc4ncccc4o3)cc2C)cc1Br,AC50,[1],"7.94 µM [falling, partial curve]"

# Not a retest: entries from further up.
smiles,measurement,setting,value
CCN(CC)c1ccc(NC(=O)c2c(C)nn(-c3ccc(F)cc3)c2-n2cccc2)c(C)c1,AC50,[1],"12.6 µM [falling, partial curve]"
COc1cccc(CN(C(=O)COc2ccc(Cl)c(C)c2)C2CCS(=O)(=O)C2)c1 (stereo not drawn),AC50,[1],"10 µM [falling, partial curve]"
Cc1ccc(Sc2ccc(N3CCC(C(=O)Nc4cc(C)cc(C)c4)CC3)nn2)cc1,AC50,[1],"3.16 µM [falling, full curve]"
Cc1ccc(C2CC(=O)n3nc(-c4ccc(Cl)cc4)nc3S2)cc1 (stereo not drawn),AC50,[1],"12.6 µM [falling, partial curve]"
Cc1c(Cl)cccc1-n1ncc(C(=O)NCCN2CCN(C)CC2)c1C1CCN(C(=O)OC(C)(C)C)CC1,AC50,[1],"39.8 µM [falling, single point]"
O=C(Nc1ccc(Cl)cc1)c1cnn2c1NC(c1ccccc1)=CC2c1ccccc1 (stereo not drawn),AC50,[1],"12.6 µM [falling, partial curve]"
CCOC(=O)c1scc(-c2ccccc2)c1S(=O)(=O)N1CCN(c2ccc(Cl)cc2)CC1,AC50,[1],"0.501 µM [falling, full curve, poor fit]"
Cc1ccc(S(=O)(=O)NC2OC(=O)C(Cl)=C2Cl)cc1 (stereo not drawn),AC50,[1],"39.8 µM [rising, single point] [measured here: IkB-luc green channel]"
O=C(CSc1ccc(Cl)cc1)Nc1ccc(N2CCN(C(=O)c3ccco3)CC2)cc1,AC50,[1],"3.98 µM [falling, full curve]"
c1ccc2oc(SCc3cn4ccccc4n3)nc2c1,AC50,[1],"20 µM [falling, partial curve, poor fit]"
COc1cccc(N2CCN(C(=O)c3cnc4c(-c5ccccc5)c(C)nn4c3C)CC2)c1,AC50,[1],"20 µM [falling, single point]"
Cc1ccccc1NC(=O)NCCc1c[nH]c2ccccc12,AC50,[1],"12.6 µM [falling, partial curve]"
